From patent US20170267750A1, “Method of Treating Ovarian and Renal Cancer Using Antibodies Against T Cell Immunoglobulin Domain and Mucin Domain 1 (TIM-1) Antigen” (Celldex Therapeutics, Inc., priority 2005, published 2017)
Results are given in words; binding and its absence hold for the method and conditions named. Some results given as binding are weak or reduced against the parent protein; the word gives no strength.

By UniProt entry, the sequences of proteins in these tests, tags left out. Residues count along the entry.
UniProt Q96D42, residues 21-364: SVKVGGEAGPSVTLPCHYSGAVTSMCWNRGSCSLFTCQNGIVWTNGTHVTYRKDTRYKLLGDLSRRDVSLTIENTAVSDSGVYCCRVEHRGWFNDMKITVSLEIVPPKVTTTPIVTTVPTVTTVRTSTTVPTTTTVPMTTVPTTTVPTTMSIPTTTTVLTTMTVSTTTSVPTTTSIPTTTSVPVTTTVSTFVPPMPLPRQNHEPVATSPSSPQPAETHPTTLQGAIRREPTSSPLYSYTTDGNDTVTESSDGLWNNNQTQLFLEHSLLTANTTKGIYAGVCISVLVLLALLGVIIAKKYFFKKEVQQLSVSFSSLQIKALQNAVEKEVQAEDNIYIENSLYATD

What was measured:
[1] = biological target: TIM-1 peptide F) … (human); assay: ELISA on coated peptides
[2] = biological target: TIM-1 peptide C) … (human); assay: ELISA on coated peptides
[3] = biological target: TIM-1 peptide A) … (human); assay: ELISA on coated peptides
[4] = biological target: TIM-1 peptide B) … (human); assay: ELISA on coated peptides
[5] = biological target: minimal epitope peptide LPRQNH (human); assay: ELISA on coated truncated peptides
[6] = biological target: alanine scan peptide …; assay: ELISA reactivity with synthetic peptide (alanine scan)
[7] = biological target: TIM-1 peptide A) … (human); assay: ELISA on coated overlapping TIM-1 peptides
[8] = biological target: TIM-1 peptide C) … (human); assay: ELISA reactivity with synthetic peptide
[9] = biological target: truncated peptide PLPRQNHE (Table 10) (human); assay: ELISA reactivity with truncated synthetic peptide
[10] = biological target: truncated peptide LPRQNHE (Table 10) (human); assay: ELISA reactivity with truncated synthetic peptide
[11] = biological target: TIM-1 (T cell, immunoglobulin domain and mucin domain 1), cell membrane-bound (human) (UniProt Q96D42); assay: FACS on ACHN and CAKI-2 renal cancer cells

Measured: binding

B1: anti-TIM-1 monoclonal antibody 2.70.2 (antibody, human IgG4, kappa, V domains shown)
VH: QVQLVESGGGVVQPGRSLRLSCAASGFIFSRYGMHWVRQAPGKGLKWVAVIWYDGSNKLYADSVKGRFTISRDNSKNTLYLQMNSLRAEDTAVYYCARDYYDNSRHHWGFDYWGQGTLVTVSS
VL: DIVMTQTPLSLPVTPGEPASISCRSSRSLLDSDDGNTYLDWYLQKPGQSPQLLIYTLSYRASGVPDRFSGSGSGTDFTLKISRVEAEDVGVYYCMQRVEFPITFGQGTRLEIKR
binds: [1] | [2] | [3] | [4] | [5] | [6] | [7] | [8] | [9] | [10] | [11]
